Among all 320,000 compounds or so, about 22,000 (6.9%) were called active. The shares of active, inactive and inconclusive entries below differ from those in the screen. Calls follow the shape of the dose curve; as a rule, active = well fitted inhibition curve with a large enough effect; inconclusive = small, poorly fitted or top-dose-only effect, or another doubt; inactive = no such curve, though single readings can be large or run the other way. Potencies beside an inconclusive call are fits to weak or partial responses and may not hold up.
Test: Primary qHTS for delayed death inhibitors of the malarial parasite plastid, 96 hour incubation
Conditions: P. falciparum luciferase reporter growth; series mostly up to 28.7 µM
Outline: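 Parasite growth measured via integrated firefly luciferase reporter in P. falciparum. Infected erythrocytes at 2% hematocrit, 0.05% parasitemia final were treated 96 hours at 37 C under 5% CO2, and luminescence was read.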
Potency is read from the fitted curve at half-maximal effect.

Structure (SMILES)	Potency
Nc1nc(Nc2ccccc2F)nc(NCc2ccccc2)c1[N+](=O)[O-]	inconclusive: 13.1 µM [inhibitor, single point]
Cc1cc(Cl)c(C(=O)Nc2cccc(C(F)(F)F)c2)c(C)n1	inconclusive: 18.5 µM [inhibitor, single point]
O=C(Nc1ccc(S(=O)(=O)Nc2nccs2)cc1)c1cc(-c2ccccc2)nc2ccccc12	inconclusive: 18.5 µM [inhibitor, single point]
COc1ccc(OCc2cc(C(=O)N(C)CCC3CCOCC3)no2)c(Cl)c1	inconclusive: 16.5 µM [inhibitor, single point]
COc1ccc(SC[C@H](Cc2ccccc2)N2CC[C@@H](C(C)(C)C)CCC2=O)cc1	inconclusive: 9.28 µM [inhibitor, partial curve, poor fit]
Cn1ncc(N=Cc2c(O)ccc3ccccc23)c1C(=O)Nc1cccc(Cl)c1	inconclusive: 2.62 µM [inhibitor, single point]
COc1ccc(C(=O)COC(=O)CCN2C(=O)C3CC=CCC3C2=O)c(OC)c1 (stereo not given)	inactive
COc1cccc(OC)c1/C(O)=C(\C#N)c1nc2ccccc2[nH]1	inconclusive: 9.28 µM [inhibitor, partial curve]
NC(=S)N/N=C/c1ccccc1OCCSc1ccc(Cl)cc1	inconclusive: 18.5 µM [inhibitor, single point]
COc1ccc(C)cc1S(=O)(=O)N(C)CC(N)=O	active: 10.4 µM
CC(=O)c1cccc(NS(=O)(=O)c2ccc(N/C=C/C(=O)c3ccc(F)cc3)cc2)c1	inconclusive: 5.86 µM [inhibitor, single point]
O=C(O)c1ccc2c(c1)C(=O)N(c1cccc(-c3nc4ccccc4s3)c1)C2=O	inconclusive: 2.62 µM [inhibitor, full curve, poor fit]
CC(Sc1nnnn1-c1ccc(O)cc1)C(=O)NC1CCCCC1C (stereo not given)	inconclusive: 4.15 µM [inhibitor, partial curve, poor fit]
O=C(Nc1ccccc1C(=O)N/N=C/c1ccncc1)c1ccccc1	inconclusive: 18.5 µM [inhibitor, single point]
Cc1ccc(S(=O)(=O)c2nc(S(C)(=O)=O)sc2N(C)C)cc1	inactive
OC(c1ccc(Cl)cc1)C(CN1CCOCC1)c1ccccc1 (stereo not given)	active: 2.08 µM
O=C(O)CCC(=O)NCCn1c(-c2ccccc2)csc1=Nc1ccccc1	inconclusive: 5.86 µM [inhibitor, partial curve, poor fit]
COc1ccc(S(=O)(=O)N2CCCCCC2)cc1NC(=O)c1c2c(nc3ccccc13)CCN(Cc1ccccc1)C2	active: 1.47 µM
Cc1cccc(NC(=O)CSc2nnc(NC(=O)c3ccco3)s2)c1	inactive
CN(C)c1ccc(NC(=O)CCCCCn2nnc3ccccc3c2=O)cc1	inconclusive: 3.7 µM [inhibitor, partial curve, poor fit]
O=C(N/N=C/c1cccs1)c1n[nH]c2c1CCC2	inconclusive: 18.5 µM [inhibitor, single point]
O=C1NC(=S)SC1=C1CCCC1	inactive
O=S(=O)(Nc1ccc(-c2nc3cccnc3s2)cc1)c1cccs1	inactive
O=C(CN(CCN1CCOCC1)C(=O)Cn1nnc(-c2ccc(F)cc2)n1)NC1CCCCC1	active: 6.57 µM

Reformatted: entries from further up
Cc1cc(Cl)c(C(=O)Nc2cccc(C(F)(F)F)c2)c(C)n1
  Potency: inconclusive: 18.5 µM [inhibitor, single point]
NC(=S)N/N=C/c1ccccc1OCCSc1ccc(Cl)cc1
  Potency: inconclusive: 18.5 µM [inhibitor, single point]
CC(=O)c1cccc(NS(=O)(=O)c2ccc(N/C=C/C(=O)c3ccc(F)cc3)cc2)c1
  Potency: inconclusive: 5.86 µM [inhibitor, single point]

More records follow:

Structure (SMILES)	Potency
Cn1cc(/C=N/NC(=O)c2cccc([N+](=O)[O-])c2)c2ccccc21	inactive
C=CCOC(=O)C1=C(C)NC(C)=C(C(=O)OCC=C)C1c1cccs1	inconclusive: 4.15 µM [inhibitor, partial curve, poor fit]
O=c1oc2cc(OCc3ccc(C(F)(F)F)cc3)ccc2cc1-c1ccccn1	inactive
CCOC(=O)c1c(-c2cccs2)csc1NC(=O)CNCCN1CCOCC1	active: 11.7 µM
O=S(=O)(Nc1ccc(Cl)cn1)c1ccccc1	inactive
COc1ccc2nc(NC(=O)c3ccccc3-c3ccccc3C(=O)O)sc2c1	inconclusive: 9.28 µM [inhibitor, single point]
CCOC(=O)c1cnc2ccc(OC)cc2c1Nc1ccc2c(c1)OCCO2	inconclusive: 18.5 µM [inhibitor, partial curve, poor fit]
O=[N+]([O-])c1ccc(N2CCCC(C(F)(F)F)C2)c2ccncc12 (stereo not given)	inconclusive: 13.1 µM [inhibitor, single point]
COc1ccc(-n2cc(CNCCc3nc(C)cc(C)n3)c(-c3ccccc3Cl)n2)cc1	inconclusive: 18.5 µM [inhibitor, single point]
COc1ccc2[nH]c3c(=O)n(CCCCC(=O)N4CCC(C(N)=O)CC4)c(=S)[nH]c3c2c1	inconclusive: 14.7 µM [inhibitor, single point]
CCOc1ccccc1-n1c(O)c(C=Nc2ccc(N(CC)CC)cc2)c(=O)[nH]c1=O	inconclusive: 11.7 µM [inhibitor, partial curve, poor fit]
O=C(Nc1cccnc1)c1sc(Nc2ccccc2F)nc1-c1ccccc1	inactive
O=C(NCc1ccc(Cl)cc1)c1cnn2ccccc12	inactive
N/C(=N\OC(=O)Nc1ccccc1)c1ncc([N+](=O)[O-])s1	inconclusive: 4.65 µM [inhibitor, partial curve]
CCc1cc(=O)oc2c(C)c(OC(C)C(=O)N3CC[C@@]4(O)CCCC[C@H]4C3)ccc12 (stereo not given in full)	active: 11.7 µM
Cc1csc(=O)n1CC(=O)OCC(=O)c1c(N)n(CC(C)C)c(=O)n(C)c1=O	inactive
Cc1c(NC(=O)Nc2ccc(C#N)cc2)c(=O)n(-c2ccccc2)n1C	inconclusive: 18.5 µM [inhibitor, single point]
O=C(NCc1ccncc1)C1CCCN(S(=O)(=O)Cc2ccccc2)C1 (stereo not given)	inconclusive: 16.5 µM [inhibitor, single point]
O=C(c1ccccn1)N1CCCC(N2CCN(Cc3ccc4c(c3)OCO4)CC2)C1 (stereo not given)	inconclusive: 1.31 µM [inhibitor, full curve]
Cc1ccsc1/C=C(/C#N)C(=O)NCc1ccccc1	inactive
CCN1C(=O)C(CC(=O)Nc2cc(C)ccc2C)SC1=Nc1ccc(S(N)(=O)=O)cc1 (stereo not given)	inconclusive: 3.7 µM [inhibitor, partial curve]
CCOc1ccc(CNCCc2ccc3c(c2)OCO3)cc1	inconclusive: 0.0586 µM [inhibitor, full curve, poor fit]
O=c1[nH]ncc(N2CCN(C(c3ccccc3)c3ccccc3)CC2)c1Cl	inconclusive: 18.5 µM [inhibitor, single point]
COc1cc(NC(=S)NC(=O)c2ccc(C)cc2C)ccc1NC(=O)c1cccs1	inconclusive: 0.465 µM [inhibitor, partial curve, poor fit]

Structure (SMILES)	Potency
Cc1nc(-c2ccc3c(c2)CCC(=O)N3)cs1	inactive
CN1C(=O)COc2ccc(C(=O)c3oc4ccccc4c3-c3cnc4c(c3)COc3ccccc3-4)cc21	inactive
CC(C)OC(=O)c1cc2ccccc2oc1=O	inconclusive: 9.28 µM [inhibitor, partial curve, poor fit]
Cc1nc([N+](=O)[O-])c(C(=O)O)n1C	inconclusive: 14.7 µM [inhibitor, single point]
C=CCN1C(=O)C(Cc2ccc(F)cc2)S/C1=N/N=C/c1ccco1 (stereo not given)	inconclusive: 0.185 µM [inhibitor, full curve, poor fit]
O=C(N1CCOCC1)N1CCc2ccccc21	active: 11.7 µM
Cc1ccccc1NC(=O)C1CC(=O)N(Cc2ccccc2)C1 (stereo not given)	inactive
CSc1ncc(CN2CCN(CCC(C)C)C(CCO)C2)cn1 (stereo not given)	inconclusive: 9.28 µM [inhibitor, single point]
Cc1noc(/C=C/N(C)C)c1S(=O)(=O)N1CCCC(C(=O)NC2CCCCC2)C1 (stereo not given)	inactive
CCCCNC(=O)C(=O)NCC1CCCN1S(=O)(=O)c1cccs1 (stereo not given)	inconclusive: 1.85 µM [inhibitor, partial curve, poor fit]
COc1ccc(-n2nc(C(=O)NCC(=O)Nc3cc(OC)c(OC)c(OC)c3)c3ccccc3c2=O)cc1OC	inconclusive: 16.5 µM [inhibitor, single point]
O=C(c1ccc(Cl)c([N+](=O)[O-])c1)N1CCN(Cc2ccc3c(c2)OCO3)CC1	inactive
COc1ccccc1/C(C)=N/NC(=O)c1nnn(-c2nonc2N)c1C(C)C	inconclusive: 14.7 µM [inhibitor, partial curve, poor fit]
CCN(CC)c1ccc(S(=O)(=O)Nc2cc(Cl)ccc2Cl)cc1NC(=S)NC(=O)C1CCCC1	inactive
CCS(=O)c1scc(-c2ccc(Cl)cc2)c1C#N (stereo not given)	inactive
CCC(NC(=S)NC1CCCCC1)c1ccccc1 (stereo not given)	inconclusive: 5.22 µM [inhibitor, partial curve]
CCN(CC)S(=O)(=O)c1cc(NC(=O)c2cccc(N3C(=O)CCC3=O)c2)ccc1Cl	inactive
COc1ccc(CCNC(=O)CCc2ccc(S(=O)(=O)NC(C)C)cc2)cc1	inconclusive: 9.28 µM [inhibitor, partial curve]
Cc1n[nH]c(=S)n(/N=C/c2cccc([N+](=O)[O-])c2)c1=O	inconclusive: 1.04 µM [inhibitor, partial curve, poor fit]
CC(Oc1ccccc1)c1ccnc2nc(N3CCOCC3)nn12 (stereo not given)	inactive
Cc1ccc(-n2c(CNCc3ccc(F)cc3)nc3ccccc3c2=O)cc1	inconclusive: 18.5 µM [inhibitor, single point]
O=C(CCc1nc2ccccc2c(=O)[nH]1)N1CCCc2ccccc21	inconclusive: 18.5 µM [inhibitor, single point]

Source: PubChem BioAssay AID504834 (National Center for Advancing Translational Sciences (NCATS), 2011)
